## Drug screen on melanoma cell lines: apoptosis marker

Values as published with doi:10.1371/journal.pone.0140310, rounded.

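Human melanoma cells were exposed to two drugs together for 72 h in 1,536-well plates and read by automated microscopy after fixing and staining. The read-out is the fraction of cleaved-PARP-positive nuclei, in % of that fraction in the DMSO control; 200 means twice the control level of this apoptosis marker. Concentrations were fixed for each drug; these are the higher of two levels. The file gives one value for each pair and line, without errors, so small differences may be noise. Basal and induced levels differ widely between cell lines.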 This is part of the screen, not chosen by result. An entry leaves out what has no value listed here.

First drug in all entries: fingolimod, 10 µM, CCCCCCCCc1ccc(CCC(N)(CO)CO)cc1

* CS(=O)(=O)c1ccc(C(=O)Nc2ccc(Cl)c(-c3ccccn3)c2)c(Cl)c1 at 5 µM | A375: 202; SK-MEL-30: 1400; IST-MEL1: 2240; COLO 829: 426; COLO 792: 13800; C32: 583; RVH-421: 1140; IPC-298: 2720
* Cn1cc(C2=C(c3cn(C4CCN(Cc5ccccn5)CC4)c4ccccc34)C(=O)NC2=O)c2ccccc21 at 4 µM | A375: 76.5; SK-MEL-30: 757; IST-MEL1: 1390; COLO 829: 108; COLO 792: 6100; C32: 365; RVH-421: 704; IPC-298: 449
* CC(C)C[C@H](NC(=O)[C@H](Cc1ccccc1)NC(=O)c1cnccn1)B(O)O at 0.005 µM | A375: 144; SK-MEL-30: 2010; IST-MEL1: 551; COLO 829: 5610; COLO 792: 10800; C32: 929; RVH-421: 4960; IPC-298: 6770
* CCCCCCCCCCCC1=C(O)C(=O)C=C(O)C1=O at 6 µM | A375: 118; SK-MEL-30: 1290; IST-MEL1: 160; COLO 829: 88.7; COLO 792: 377; C32: 177; RVH-421: 245; IPC-298: 87.0
* Nc1cccc2c1CN(C1CCC(=O)NC1=O)C2=O (centres undefined) at 5 µM | A375: 101; SK-MEL-30: 2870; IST-MEL1: 356; COLO 829: 98.0; COLO 792: 975; C32: 1480; RVH-421: 76.4; IPC-298: 287
* COc1cc(N2CCC(N3CCN(C)CC3)CC2)ccc1Nc1ncc(Cl)c(Nc2ccccc2S(=O)(=O)C(C)C)n1 at 0.4 µM | A375: 226; SK-MEL-30: 985; IST-MEL1: 164; COLO 829: 453; COLO 792: 479; C32: 4010; RVH-421: 133; IPC-298: 64.9
* CCN(CC)CCNC(=O)c1c(C)[nH]c(/C=C2\C(=O)Nc3ccc(F)cc32)c1C at 2 µM | A375: 364; SK-MEL-30: 3170; IST-MEL1: 701; COLO 829: 162; COLO 792: 8280; C32: 1040; RVH-421: 538; IPC-298: 796
* Cc1cn(-c2cc(NC(=O)c3ccc(C)c(Nc4nccc(-c5cccnc5)n4)c3)cc(C(F)(F)F)c2)cn1 at 1 µM | A375: 67.2; SK-MEL-30: 4050; IST-MEL1: 528; COLO 829: 202; COLO 792: 12500; C32: 138; RVH-421: 14600; IPC-298: 403
* Cc1cc([N+](=O)[O-])ccc1NS(=O)(=O)c1cc(Cl)ccc1Cl at 5 µM | A375: 122; SK-MEL-30: 1010; IST-MEL1: 231; COLO 829: 232; COLO 792: 265; C32: 1240; RVH-421: 199; IPC-298: 82.1
* Nc1nc(F)nc2c1ncn2[C@@H]1O[C@H](CO)[C@@H](O)[C@@H]1O at 1 µM | A375: 456; SK-MEL-30: 2310; IST-MEL1: 453; COLO 829: 147; COLO 792: 7820; C32: 303; RVH-421: 4400; IPC-298: 697
* O=C(Nc1ccccc1)c1cc([N+](=O)[O-])ccc1Cl at 10 µM | A375: 35.1; SK-MEL-30: 978; IST-MEL1: 449; COLO 829: 506; COLO 792: 1720; C32: 2140; RVH-421: 179; IPC-298: 207
* Cn1cc(/C=C2\C(=O)Nc3cccnc32)c2ccccc21 at 2 µM | A375: 467; SK-MEL-30: 675; IST-MEL1: 325; COLO 829: 183; COLO 792: 8380; C32: 586; RVH-421: 738; IPC-298: 98.6
* C/C(O)=C(\C#N)C(=O)Nc1cc(Br)ccc1Br at 10 µM | A375: 287; SK-MEL-30: 551; IST-MEL1: 587; COLO 829: 108; COLO 792: 4740; C32: 5340; RVH-421: 758; IPC-298: 133
* NC(=O)c1ccc(N(C(N)=O)c2c(F)cccc2F)nc1-c1ccc(F)cc1F at 2 µM | A375: 76.3; SK-MEL-30: 3300; IST-MEL1: 192; COLO 829: 204; COLO 792: 10500; C32: 1810; RVH-421: 1890; IPC-298: 916
* COc1cc2c(Oc3ccc4[nH]c(C)cc4c3F)ncnc2cc1OCCCN1CCCC1 at 2 µM | SK-MEL-30: 2810; IST-MEL1: 240; COLO 829: 220; COLO 792: 8640; C32: 12100; RVH-421: 612; IPC-298: 548
* CCCCCCCCCCCCCCCCCCOP(=O)([O-])OC1CC[N+](C)(C)CC1 at 2 µM | A375: 34.7; SK-MEL-30: 2000; IST-MEL1: 142; COLO 829: 181; COLO 792: 8740; C32: 1550; RVH-421: 125; IPC-298: 373
* CC1(C)NC(=O)N(c2ccc([N+](=O)[O-])c(C(F)(F)F)c2)C1=O at 5 µM | SK-MEL-30: 1460; IST-MEL1: 551; COLO 829: 250; COLO 792: 6310; C32: 8100; RVH-421: 3290; IPC-298: 472
* COc1ccc(COc2ccc(Cc3cnc(N)nc3N)cc2OC)cc1 at 5 µM | A375: 325; SK-MEL-30: 616; IST-MEL1: 279; COLO 829: 125; COLO 792: 2620; C32: 770; RVH-421: 212; IPC-298: 90.0
* NCC(=O)Nc1ccc(-n2nc(C(F)(F)F)cc2-c2ccc3c(ccc4ccccc43)c2)cc1 at 5 µM | SK-MEL-30: 1510; IST-MEL1: 720; COLO 829: 261; COLO 792: 6680; C32: 4830; RVH-421: 616; IPC-298: 406
* Cn1c(=O)n(-c2ccc(C(C)(C)C#N)cc2)c2c3cc(-c4cnc5ccccc5c4)ccc3ncc21 at 0.02 µM | A375: 66.6; SK-MEL-30: 877; IST-MEL1: 2660; COLO 829: 139; COLO 792: 10300; C32: 1130; RVH-421: 12900; IPC-298: 76.3
* CO[C@H]1C[C@@H]2CC[C@@H](C)[C@@](O)(O2)C(=O)C(=O)N2CCCC[C@H]2C(=O)O[C@H]([C@H](C)C[C@@H]2CC[C@@H](OCCO)[C@H](OC)C2)CC(=O)[C@H](C)/C=C(\C)[C@@H](O)[C@@H](OC)C(=O)[C@H](C)C[C@H](C)/C=C/C=C/C=C/1C at 0.1 µM | A375: 102; SK-MEL-30: 1500; IST-MEL1: 1190; COLO 829: 207; COLO 792: 12000; C32: 913; RVH-421: 1940; IPC-298: 339
* Nc1ccn([C@@H]2O[C@H](CO)[C@@H](O)C2(F)F)c(=O)n1 at 0.002 µM | A375: 107; SK-MEL-30: 3020; IST-MEL1: 860; COLO 829: 620; COLO 792: 614; C32: 2720; RVH-421: 196; IPC-298: 255
* C[C@]1(O)C[C@@H](c2nc(-c3ccc4ccc(-c5ccccc5)nc4c3)c3c(N)nccn32)C1 at 2 µM | A375: 221; SK-MEL-30: 1370; IST-MEL1: 1960; COLO 829: 222; COLO 792: 7580; C32: 913; RVH-421: 408; IPC-298: 243
* Cc1cc(Nc2cc(N3CCN(C)CC3)nc(Sc3ccc(NC(=O)C4CC4)cc3)n2)n[nH]1 at 0.03 µM | A375: 43.0; SK-MEL-30: 3490; IST-MEL1: 272; COLO 829: 174; COLO 792: 293; C32: 1170; RVH-421: 285; IPC-298: 295

Once more, the final 2:

Second drug,A375,SK-MEL-30,IST-MEL1,COLO 829,COLO 792,C32,RVH-421,IPC-298
C[C@]1(O)C[C@@H](c2nc(-c3ccc4ccc(-c5ccccc5)nc4c3)c3c(N)nccn32)C1 at 2 µM,221,1370,1960,222,7580,913,408,243
Cc1cc(Nc2cc(N3CCN(C)CC3)nc(Sc3ccc(NC(=O)C4CC4)cc3)n2)n[nH]1 at 0.03 µM,43.0,3490,272,174,293,1170,285,295